In PubChem BioAssay AID588590 (National Center for Advancing Translational Sciences (NCATS), 2011):
The whole screen tested about 390,000 compounds, of which about 4,000 (1%) were called active. Inconclusive results, whose numbers are uncertain, are shown with a selection of clear calls. The call rests on the fitted dose curve; in most records, active means well fitted inhibition curve with a large enough effect; inconclusive means small, poorly fitted or top-dose-only effect, or another doubt; inactive means no such curve, though single readings can be large or run the other way. Potencies of inconclusive entries are doubtful fits and often do not repeat.
Potency means the concentration at half of the fitted maximal effect.

Sequences of proteins named here, by UniProt entry; tags and fusion partners are left off. A change or cut given only in a name is not applied to a line headed by its entry.
UniProt Q9UNA4: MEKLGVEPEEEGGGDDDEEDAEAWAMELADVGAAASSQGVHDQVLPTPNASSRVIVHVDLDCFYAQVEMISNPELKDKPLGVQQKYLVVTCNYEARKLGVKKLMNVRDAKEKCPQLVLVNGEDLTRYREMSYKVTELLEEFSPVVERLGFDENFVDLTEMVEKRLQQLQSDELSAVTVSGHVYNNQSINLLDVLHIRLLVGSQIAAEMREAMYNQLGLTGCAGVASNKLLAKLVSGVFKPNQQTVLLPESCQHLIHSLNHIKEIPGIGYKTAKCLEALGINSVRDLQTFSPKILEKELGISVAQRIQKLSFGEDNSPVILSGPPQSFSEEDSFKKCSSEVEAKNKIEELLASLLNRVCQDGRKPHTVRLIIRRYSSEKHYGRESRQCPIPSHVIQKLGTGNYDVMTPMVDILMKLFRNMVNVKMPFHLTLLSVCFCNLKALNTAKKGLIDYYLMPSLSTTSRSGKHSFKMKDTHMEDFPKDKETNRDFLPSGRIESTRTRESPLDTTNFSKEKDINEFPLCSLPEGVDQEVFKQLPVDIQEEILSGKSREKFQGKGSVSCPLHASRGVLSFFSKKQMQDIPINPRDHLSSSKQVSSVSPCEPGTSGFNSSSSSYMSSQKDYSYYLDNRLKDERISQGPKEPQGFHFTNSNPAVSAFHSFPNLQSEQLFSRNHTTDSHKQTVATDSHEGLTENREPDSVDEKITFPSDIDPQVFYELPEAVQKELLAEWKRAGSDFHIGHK

What follows are compounds tested against DNA polymerase iota (Homo sapiens) (UniProt Q9UNA4) (assay: qHTS for Inhibitors of Polymerase Iota). Conditions: Pol iota fluorescent replication assay, 10 min; series mostly up to 115 µM; activity, negative = inhibition: at the top concentration.
Method in brief: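 Pol iota at 10 nM preincubated 15 min with compounds at room temperature; reaction started with fluorescent substrate, 50 nM final. Fluorescence read kinetically at 0 and 10 min; buffer-only wells as negative control.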
`Cc1ccc(C(=O)OCC(=O)Nc2ccccc2)cc1S(=O)(=O)N1CCCCC1` was tested, and the Potency was inconclusive: 56.2 µM [inhibitor, single point].
With `CN(Cc1ccccc1)C(=O)COC(=O)/C=C/c1ccco1` the Potency was inconclusive: 25.1 µM [inhibitor, full curve].
With `Cc1ccc(C2=CN(Cc3ccccc3)CCC2=O)cc1` the Potency was inconclusive: 79.4 µM [inhibitor, partial curve, poor fit].
`CSc1ccc(/C=N/Nc2cccc(C(=O)O)c2)cc1` was tested, and the Potency was active: 2.24 µM.
With `CCN(CC)S(=O)(=O)c1ccc(N2CCOCC2)c(NC(=O)c2cccc3ccccc23)c1` the “activity, negative = inhibition” value was inactive: 70.9%.
With `CCNC(=S)NNc1ccccc1` the Potency was inconclusive: 14.1 µM [inhibitor, partial curve, poor fit].
For `CC(C)CC1Nc2ncnc(N3CCN(c4ccccc4)CC3)c2N(Cc2ccccc2)C1=O` (stereo unspecified), the Potency was inconclusive: 12.6 µM [inhibitor, partial curve, poor fit].
In the case of `O=C(CC1c2ccccc2Oc2ccccc21)Nc1ccccc1F`, the Potency is reported as active: 89.1 µM.
For `COc1ccccc1CNC(=O)C1CCN(S(=O)(=O)c2c(C)noc2/C=C/c2cccs2)CC1`, the Potency was active: 89.1 µM.
In the case of `Clc1ccc(C2Nc3cccc4cccc(c34)N2)c(Cl)c1`, the “activity, negative = inhibition” value is reported as inactive: -7.48%.
In the case of `COc1ccc(OC)c(NC(=O)c2c(NCc3ccc(C)o3)sc3c2CCCCC3)c1`, the Potency is reported as active: 28.2 µM.
With `Cc1cc(Nc2ccccc2Cl)n2nc(-c3ccco3)nc2n1` the “activity, negative = inhibition” value was inactive: 14.4%.
In the case of `O=C(N/C(=N\O)c1ccccc1)Nc1ccc(Cl)cc1`, the Potency is reported as inconclusive: 4.47 µM [inhibitor, full curve, poor fit].
For `Cc1nn(CCCC(=O)Nc2sc3c(c2C#N)CCC3)c(C)c1[N+](=O)[O-]`, the Potency was inconclusive: 17.8 µM [inhibitor, partial curve, poor fit].
In the case of `Cc1cc(C)cc(C(=O)Oc2coc(CSc3nnc(NC(=O)C4CC4)s3)cc2=O)c1`, the Potency is reported as inconclusive: 89.1 µM [inhibitor, partial curve].
`Cc1ccc(N=Nc2c(N)nn3c(N)c(C#N)c(C)nc23)cc1` was tested, and the Potency was inconclusive: 35.5 µM [inhibitor, single point].
With `Cc1nn(CC(=O)N2CCN(c3ccccc3)CC2)c(=O)c2cc3cc(F)ccc3n12` the “activity, negative = inhibition” value was inactive: 8.56%.
In the case of `CC1=C(c2ccc(C(C)C)cc2)S(=O)(=O)N=C1N1CCC(C(=O)NCc2ccco2)CC1`, the “activity, negative = inhibition” value is reported as inactive: 19.3%.
For `O=C(NCC1CCN(Cc2cccc(F)c2)CC1)c1cc2ccc3cccnc3c2[nH]1`, the “activity, negative = inhibition” value was inactive: 2.33%.
In the case of `CCCC(=O)Nc1nnc(S(=O)(=O)N(CC)c2ccc(OC)cc2)s1`, the Potency is reported as inconclusive: 89.1 µM [inhibitor, single point].
For `O=C(NC(C1CC1)C1CC1)C1CCC(=O)N(CCCN2CCCC2=O)C1` (stereo unspecified), the Potency was inconclusive: 31.6 µM [inhibitor, single point].
In the case of `Cc1ccc(C)c(N2CCN(C(=O)c3ccc(CS(=O)(=O)c4ccccc4C)o3)CC2)c1`, the “activity, negative = inhibition” value is reported as inactive: 9.72%.
In the case of `CC(C)(C)c1ccc(OCC(=O)NCc2ccco2)c(Br)c1`, the Potency is reported as inconclusive: 39.8 µM [inhibitor, partial curve, poor fit].
In the case of `CCOC(=O)C1=CC[C@@H](c2cc3cc(OC)ccc3n2C)N(S(=O)(=O)c2ccc(C)cc2)[C@H]1C(=O)OCC`, the Potency is reported as inconclusive: 79.4 µM [inhibitor, single point].
With `N#CC1=C(N)NC(SCC(=O)Nc2ccccc2)=C(C#N)C12CCCCC2` the Potency was inconclusive: 15.8 µM [inhibitor, partial curve, poor fit].
With `Cc1ccc(CNC(=O)Cn2c(=O)cc(-c3ccccc3)c3c(C)nn(C)c32)cc1` the “activity, negative = inhibition” value was inactive: -12.2%.
In the case of `O=C(COC(=O)c1ccc(Cl)c(S(=O)(=O)N2CCCCC2)c1)NCc1ccco1`, the Potency is reported as inconclusive: 50.1 µM [inhibitor, partial curve, poor fit].
For `O=C1N/C(=N/S(=O)(=O)c2ccccc2)S/C1=C/c1cccnc1`, the Potency was inconclusive: 14.1 µM [inhibitor, full curve].
In the case of `Nc1[nH]c2cc([N+](=O)[O-])ccc2c1-c1ccccn1`, the Potency is reported as inconclusive: 89.1 µM [inhibitor, partial curve].
For `CN1CCC(=NNC(=O)CN(c2ccc([N+](=O)[O-])cc2)S(=O)(=O)c2ccccc2)CC1`, the Potency was inconclusive: 89.1 µM [inhibitor, single point].
For `CCC(=S)/C=C1\Sc2ccccc2N1CCCS(=O)(=O)O`, the Potency was inconclusive: 25.1 µM [inhibitor, partial curve, poor fit].
`COc1ccc(S(=O)(=O)N2CCN(c3ncccn3)CC2)cc1[N+](=O)[O-]` was tested, and the Potency was inconclusive: 39.8 µM [inhibitor, partial curve].
For `O=C(CSc1nnc(-c2cccnc2)n1Cc1ccccc1)NCc1ccco1`, the Potency was inconclusive: 79.4 µM [inhibitor, partial curve, poor fit].
For `Cc1ccc(NC(=O)CN(C)C(=O)COc2ccc(C(=O)c3ccc(F)cc3)cc2)cc1`, the Potency was inconclusive: 89.1 µM [inhibitor, single point].
`Cc1ccc(-c2nn(CC(=O)NC(C)c3ccccc3)c(=O)c3ccccc23)cc1` (stereo unspecified) was tested, and the Potency was inconclusive: 3.55 µM [inhibitor, single point].
With `COc1ccc2[nH]c3c(=O)n(Cc4ccc(C(=O)NCC5CCCO5)cc4)c(=S)[nH]c3c2c1` (stereo unspecified) the Potency was inconclusive: 17.8 µM [inhibitor, full curve, poor fit].
In the case of `CCOc1ccc(CCNC(=O)Cn2nc(C)c3c(C)n(-c4ccccc4)nc3c2=O)cc1`, the Potency is reported as inconclusive: 31.6 µM [inhibitor, partial curve].
With `O=C(CCc1nc2sc3c(c2c(=O)[nH]1)CCCC3)NCC(=O)Nc1ccccc1Br` the Potency was active: 50.1 µM.
In the case of `N#CC1=C(N)C(C#N)(C#N)C2(CCC3(CC2)OCCO3)C2CC3(CC=C12)OCCO3` (stereo unspecified), the Potency is reported as inconclusive: 39.8 µM [inhibitor, single point].
In the case of `CCC(C)[C@H](NC(=O)NCC1CCCO1)C(=O)OC` (stereo partly specified), the Potency is reported as inconclusive: 25.1 µM [inhibitor, partial curve, poor fit].
With `CCN(CC)c1ccccc1/C=C/[n+]1ccc(CCCCI)c2ccccc21` the Potency was inconclusive: 15.8 µM [inhibitor, full curve].
With `Cc1cc(C)n(Cc2ccc(C(=O)NCc3ccco3)o2)n1` the Potency was inconclusive: 28.2 µM [inhibitor, partial curve, poor fit].
In the case of `COc1ccc(CN2C(=O)c3cccnc3C2=O)cc1S(=O)(=O)NCc1ccccc1`, the Potency is reported as inconclusive: 50.1 µM [inhibitor, partial curve, poor fit].
`COc1ccc(/C=N\NC(=O)c2ccc([N+](=O)[O-])c(C)c2)cc1COc1ccccc1C(N)=O` was tested, and the “activity, negative = inhibition” value was inactive: 44.6%.
In the case of `CCc1cccc(NC(=O)Cn2c(-c3ccc(F)cc3)cc(C(C)=O)c2C)c1`, the “activity, negative = inhibition” value is reported as inactive: -4.43%.
For `CC(=O)c1cccc(NC(=O)Cn2cnc(S(=O)(=O)N3CCOCC3)c2)c1`, the Potency was inconclusive: 89.1 µM [inhibitor, single point].
With `COc1cc2c(cc1OC)CN(CCC(=O)c1ccc(Br)cc1)CC2` the Potency was inconclusive: 25.1 µM [inhibitor, partial curve, poor fit].
In the case of `C[C@@H]1CC=C[C@@H]2[C@H]1C(=O)N(Cc1ccccc1)[C@H]2c1ccccc1Br`, the Potency is reported as inconclusive: 39.8 µM [inhibitor, single point].
`Cc1ccc(C)c(-c2cc(C(=O)Nc3nccs3)c3ccccc3n2)c1` was tested, and the “activity, negative = inhibition” value was inactive: 10.2%.
In the case of `O=C(CC1NCCNC1=O)Nc1ccc(F)c(Cl)c1` (stereo unspecified), the Potency is reported as inconclusive: 0.631 µM [inhibitor, full curve, poor fit].
For `COc1cc(=O)[nH]c(=O)n1C(=O)Cc1ccccc1`, the Potency was inconclusive: 5.62 µM [inhibitor, single point].
`COc1ccc(Nc2ncc(C(=O)Nc3ccc(F)cc3F)c3ccccc23)cc1` was tested, and the Potency was inconclusive: 44.7 µM [inhibitor, partial curve, poor fit].
With `CCCOc1ccc(/C=C2\SC(N)=NC2=O)cc1OC` the Potency was inconclusive: 31.6 µM [inhibitor, single point].
`CC(C)C(CC(=O)NCc1ccco1)c1ccco1` (stereo unspecified) was tested, and the Potency was inconclusive: 20 µM [inhibitor, full curve, poor fit].
In the case of `Cc1ccc(OC(=O)c2cccc(C(=O)Oc3ccc(C)cc3)n2)cc1`, the Potency is reported as inconclusive: 39.8 µM [inhibitor, partial curve, poor fit].
With `Cc1cc(C)cc(-n2ccnc2SCC(=O)Nc2ccc(C)cc2C)c1` the “activity, negative = inhibition” value was inactive: 10.9%.
`CCOc1cc(C2C(C#N)=C(N)SC(N)=C2C#N)ccc1OCCN1CCOCC1` was tested, and the “activity, negative = inhibition” value was inactive: 48.9%.
With `CC(C)c1ccc(Nc2ncnc3c2nc2n3CCCC2)cc1` the “activity, negative = inhibition” value was inactive: 22.3%.
For `COc1ccc(OC)c2sc(N3CCN(C(=O)c4ccc([N+](=O)[O-])s4)CC3)nc12`, the Potency was inconclusive: 39.8 µM [inhibitor, single point].
In the case of `Cc1ccc(F)cc1NC(=O)CSc1nnc(CNC(=O)c2ccco2)n1C`, the “activity, negative = inhibition” value is reported as inactive: 23.2%.
With `CC1CCC(NC(=O)COC(=O)c2ccc3ncsc3c2)CC1` (stereo unspecified) the Potency was inconclusive: 11.2 µM [inhibitor, full curve, poor fit].
In the case of `CCCCCC(=O)Nc1cc(S(=O)(=O)O)cc2cc(S(=O)(=O)O)cc(O)c12`, the Potency is reported as active: 1 µM.
For `COc1ccc(N(CC(=O)NC2CCCC2)S(=O)(=O)c2c(C)[nH]c(=O)[nH]c2=O)cc1`, the Potency was inconclusive: 100 µM [inhibitor, single point].
In the case of `O=C(O)c1cccc2c1-c1ccc(Cl)cc1C2=O`, the “activity, negative = inhibition” value is reported as inactive: 16.3%.
In the case of `COc1ccc(NC(=O)Nc2cccc(OCc3cc(=O)n4cccc(C)c4n3)c2)c(OC)c1`, the “activity, negative = inhibition” value is reported as inactive: -6.55%.
`COc1cc(C2N=C(N)Nc3nc4ccccc4n32)ccc1OCC(=O)O` (stereo unspecified) was tested, and the Potency was inconclusive: 3.98 µM [inhibitor, full curve, poor fit].
